Test results reported in paper PMC3182252.
These are yes or no findings as the source states them, for the method shown. For some assays here: In cells and extracts the contact can be indirect. Some results given as binding are weak or reduced against the parent protein; the word gives no strength.

Protein sequences, listed by entry. Tags and fused reporters are not part of them. Lines headed by an entry give the natural chain unless they say otherwise; changes in a name come on top. Residues count along the entry.
UniProt P35968: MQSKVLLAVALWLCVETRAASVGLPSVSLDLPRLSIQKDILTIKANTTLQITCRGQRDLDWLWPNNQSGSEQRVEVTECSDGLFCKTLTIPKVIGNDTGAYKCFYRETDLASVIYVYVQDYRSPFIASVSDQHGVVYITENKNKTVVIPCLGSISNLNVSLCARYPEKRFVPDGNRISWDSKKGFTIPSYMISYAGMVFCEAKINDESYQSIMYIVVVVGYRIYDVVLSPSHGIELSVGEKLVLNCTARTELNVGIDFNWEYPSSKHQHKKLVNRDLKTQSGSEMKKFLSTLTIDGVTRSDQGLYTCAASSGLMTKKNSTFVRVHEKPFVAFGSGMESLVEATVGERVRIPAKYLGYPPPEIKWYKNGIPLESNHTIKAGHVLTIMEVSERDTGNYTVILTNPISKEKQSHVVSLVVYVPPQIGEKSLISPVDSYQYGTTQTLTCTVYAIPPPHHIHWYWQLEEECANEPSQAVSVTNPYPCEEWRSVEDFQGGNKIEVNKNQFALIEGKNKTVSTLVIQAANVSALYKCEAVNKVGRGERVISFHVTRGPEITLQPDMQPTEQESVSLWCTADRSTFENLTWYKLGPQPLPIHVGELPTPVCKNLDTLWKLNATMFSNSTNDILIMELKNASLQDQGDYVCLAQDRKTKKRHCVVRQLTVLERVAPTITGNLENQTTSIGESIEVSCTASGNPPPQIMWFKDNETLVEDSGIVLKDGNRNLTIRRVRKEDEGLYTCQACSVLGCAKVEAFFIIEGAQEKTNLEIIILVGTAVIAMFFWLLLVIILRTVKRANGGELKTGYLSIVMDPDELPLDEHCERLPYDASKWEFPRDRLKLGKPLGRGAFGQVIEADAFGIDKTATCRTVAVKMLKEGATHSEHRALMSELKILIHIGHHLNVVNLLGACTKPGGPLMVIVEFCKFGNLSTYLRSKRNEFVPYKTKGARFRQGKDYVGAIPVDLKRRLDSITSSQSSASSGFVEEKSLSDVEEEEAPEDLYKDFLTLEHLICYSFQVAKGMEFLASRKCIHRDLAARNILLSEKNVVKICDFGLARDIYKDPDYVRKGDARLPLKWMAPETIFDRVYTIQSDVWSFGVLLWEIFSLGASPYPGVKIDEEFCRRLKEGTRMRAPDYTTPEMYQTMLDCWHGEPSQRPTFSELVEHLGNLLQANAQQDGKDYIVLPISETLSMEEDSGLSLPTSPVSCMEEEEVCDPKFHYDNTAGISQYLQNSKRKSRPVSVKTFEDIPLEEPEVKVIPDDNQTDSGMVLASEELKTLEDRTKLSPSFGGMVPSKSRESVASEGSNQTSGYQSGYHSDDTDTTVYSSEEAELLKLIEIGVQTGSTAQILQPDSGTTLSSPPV
Vascular Endothelial Growth Factor Receptor-2 (VEGFR2), nuclear (human (endogenous in HUVEC)): residues 20-1356 of P35968
VEGFR2 (789-1356)-GST: residues 789-1356 of P35968
UniProt P08047: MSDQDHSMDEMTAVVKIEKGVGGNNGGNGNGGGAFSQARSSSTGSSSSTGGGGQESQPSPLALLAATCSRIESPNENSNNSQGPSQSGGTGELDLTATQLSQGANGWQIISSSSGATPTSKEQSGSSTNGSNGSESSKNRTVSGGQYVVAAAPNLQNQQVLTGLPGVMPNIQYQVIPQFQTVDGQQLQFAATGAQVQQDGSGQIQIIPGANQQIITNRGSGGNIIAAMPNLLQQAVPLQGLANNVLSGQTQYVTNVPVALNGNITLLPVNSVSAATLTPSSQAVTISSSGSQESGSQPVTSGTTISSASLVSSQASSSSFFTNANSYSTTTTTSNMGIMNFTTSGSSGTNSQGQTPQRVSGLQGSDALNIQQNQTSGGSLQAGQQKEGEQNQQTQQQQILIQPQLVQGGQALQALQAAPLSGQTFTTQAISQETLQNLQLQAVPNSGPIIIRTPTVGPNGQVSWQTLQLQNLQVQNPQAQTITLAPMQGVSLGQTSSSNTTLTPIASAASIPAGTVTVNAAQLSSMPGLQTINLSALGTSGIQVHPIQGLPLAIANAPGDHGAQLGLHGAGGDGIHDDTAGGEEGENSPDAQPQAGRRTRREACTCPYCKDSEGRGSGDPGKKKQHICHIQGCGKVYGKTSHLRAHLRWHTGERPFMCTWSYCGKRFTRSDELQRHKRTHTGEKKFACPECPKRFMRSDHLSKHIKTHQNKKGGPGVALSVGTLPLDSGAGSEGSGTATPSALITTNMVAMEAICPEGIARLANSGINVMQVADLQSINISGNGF

Tests used:
[1] = molecular target: VEGFR2 (789-1356)-GST (human) (UniProt P35968); test: pull-down; 3 µg Sp1-HA (pre-cleared on glutathione-sepharose 4B) incubated with 3 µg VEGFR2 (789-1356)-GST overnight at 4°C; 50 mM Tris-HCl pH 7.5, 150 mM NaCl, 10% glycerol, 1% NP-40, 1 mM orthovanadate; recovered on glutathione-sepharose beads, eight washes; immunoblot with GST and Sp1 antibodies; both purified
[2] = molecular target: Vascular Endothelial Growth Factor Receptor-2 (VEGFR2), nuclear (human (endogenous in HUVEC)) (UniProt P35968); test: co-IP; EC nuclear extracts precipitated with anti-VEGFR2 or anti-Sp1 antibody and protein G-Sepharose, overnight at 4°C; washed once in lysis buffer with 500 mM NaCl and twice with 150 mM NaCl; immunoblot for VEGFR2 and Sp1

| Substance | binding [1] | binding [2] |
| --- | --- | --- |
| Sp1 protein fused to a HA tag (Sp1-HA) (from UniProt P08047 1-785) | binds | – |
| Sp1 transcription factor (from UniProt P08047 1-785) | – | binds |
